Laboratory results published in the supplement of paper PMC12819154, “High-throughput peptide-centric local stability assay extends protein–ligand identification to membrane proteins, tissues and bacteria” (Nature Structural & Molecular Biology, 2025).
This is one part of the list. Small differences around the control level are noise.

Chains of the proteins cited; added tags and fusions are not shown. Lines headed by an entry give the natural chain unless they say otherwise; changes in a name come on top.
UniProt Q8NFT6: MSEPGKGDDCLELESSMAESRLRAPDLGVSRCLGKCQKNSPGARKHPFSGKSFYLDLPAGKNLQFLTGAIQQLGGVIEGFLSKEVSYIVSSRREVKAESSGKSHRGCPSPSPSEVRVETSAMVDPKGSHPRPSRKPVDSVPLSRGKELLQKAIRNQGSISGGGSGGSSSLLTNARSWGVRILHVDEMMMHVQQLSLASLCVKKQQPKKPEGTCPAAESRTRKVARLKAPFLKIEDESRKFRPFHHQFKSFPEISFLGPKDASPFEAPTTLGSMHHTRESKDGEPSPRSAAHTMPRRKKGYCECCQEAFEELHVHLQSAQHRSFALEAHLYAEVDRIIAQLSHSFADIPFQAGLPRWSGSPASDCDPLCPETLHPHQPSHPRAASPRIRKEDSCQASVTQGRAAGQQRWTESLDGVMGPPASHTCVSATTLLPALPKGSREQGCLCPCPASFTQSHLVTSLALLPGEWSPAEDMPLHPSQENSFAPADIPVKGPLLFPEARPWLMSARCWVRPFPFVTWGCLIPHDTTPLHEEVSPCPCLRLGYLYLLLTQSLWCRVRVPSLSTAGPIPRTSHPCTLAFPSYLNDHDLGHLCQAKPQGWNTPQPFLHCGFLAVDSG
UniProt Q8ND82: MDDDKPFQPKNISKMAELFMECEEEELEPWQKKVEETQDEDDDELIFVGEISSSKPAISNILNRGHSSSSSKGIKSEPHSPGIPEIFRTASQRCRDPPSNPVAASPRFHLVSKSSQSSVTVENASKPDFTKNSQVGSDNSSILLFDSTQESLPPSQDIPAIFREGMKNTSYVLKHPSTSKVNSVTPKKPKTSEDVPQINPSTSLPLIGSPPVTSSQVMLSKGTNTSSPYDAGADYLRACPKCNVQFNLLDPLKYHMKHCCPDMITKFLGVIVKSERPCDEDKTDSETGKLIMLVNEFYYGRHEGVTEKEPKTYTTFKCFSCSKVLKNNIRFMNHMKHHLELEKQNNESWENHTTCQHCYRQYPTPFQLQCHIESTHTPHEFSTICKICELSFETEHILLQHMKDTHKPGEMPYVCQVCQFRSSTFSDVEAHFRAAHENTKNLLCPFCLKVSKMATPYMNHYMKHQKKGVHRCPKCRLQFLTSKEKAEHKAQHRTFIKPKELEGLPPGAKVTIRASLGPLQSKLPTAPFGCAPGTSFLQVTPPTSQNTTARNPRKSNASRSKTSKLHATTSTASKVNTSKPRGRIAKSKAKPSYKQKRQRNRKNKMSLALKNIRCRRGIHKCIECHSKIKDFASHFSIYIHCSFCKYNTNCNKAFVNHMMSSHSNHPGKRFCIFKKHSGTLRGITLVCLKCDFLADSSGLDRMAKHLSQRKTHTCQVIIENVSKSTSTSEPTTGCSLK
UniProt Q8N2S1: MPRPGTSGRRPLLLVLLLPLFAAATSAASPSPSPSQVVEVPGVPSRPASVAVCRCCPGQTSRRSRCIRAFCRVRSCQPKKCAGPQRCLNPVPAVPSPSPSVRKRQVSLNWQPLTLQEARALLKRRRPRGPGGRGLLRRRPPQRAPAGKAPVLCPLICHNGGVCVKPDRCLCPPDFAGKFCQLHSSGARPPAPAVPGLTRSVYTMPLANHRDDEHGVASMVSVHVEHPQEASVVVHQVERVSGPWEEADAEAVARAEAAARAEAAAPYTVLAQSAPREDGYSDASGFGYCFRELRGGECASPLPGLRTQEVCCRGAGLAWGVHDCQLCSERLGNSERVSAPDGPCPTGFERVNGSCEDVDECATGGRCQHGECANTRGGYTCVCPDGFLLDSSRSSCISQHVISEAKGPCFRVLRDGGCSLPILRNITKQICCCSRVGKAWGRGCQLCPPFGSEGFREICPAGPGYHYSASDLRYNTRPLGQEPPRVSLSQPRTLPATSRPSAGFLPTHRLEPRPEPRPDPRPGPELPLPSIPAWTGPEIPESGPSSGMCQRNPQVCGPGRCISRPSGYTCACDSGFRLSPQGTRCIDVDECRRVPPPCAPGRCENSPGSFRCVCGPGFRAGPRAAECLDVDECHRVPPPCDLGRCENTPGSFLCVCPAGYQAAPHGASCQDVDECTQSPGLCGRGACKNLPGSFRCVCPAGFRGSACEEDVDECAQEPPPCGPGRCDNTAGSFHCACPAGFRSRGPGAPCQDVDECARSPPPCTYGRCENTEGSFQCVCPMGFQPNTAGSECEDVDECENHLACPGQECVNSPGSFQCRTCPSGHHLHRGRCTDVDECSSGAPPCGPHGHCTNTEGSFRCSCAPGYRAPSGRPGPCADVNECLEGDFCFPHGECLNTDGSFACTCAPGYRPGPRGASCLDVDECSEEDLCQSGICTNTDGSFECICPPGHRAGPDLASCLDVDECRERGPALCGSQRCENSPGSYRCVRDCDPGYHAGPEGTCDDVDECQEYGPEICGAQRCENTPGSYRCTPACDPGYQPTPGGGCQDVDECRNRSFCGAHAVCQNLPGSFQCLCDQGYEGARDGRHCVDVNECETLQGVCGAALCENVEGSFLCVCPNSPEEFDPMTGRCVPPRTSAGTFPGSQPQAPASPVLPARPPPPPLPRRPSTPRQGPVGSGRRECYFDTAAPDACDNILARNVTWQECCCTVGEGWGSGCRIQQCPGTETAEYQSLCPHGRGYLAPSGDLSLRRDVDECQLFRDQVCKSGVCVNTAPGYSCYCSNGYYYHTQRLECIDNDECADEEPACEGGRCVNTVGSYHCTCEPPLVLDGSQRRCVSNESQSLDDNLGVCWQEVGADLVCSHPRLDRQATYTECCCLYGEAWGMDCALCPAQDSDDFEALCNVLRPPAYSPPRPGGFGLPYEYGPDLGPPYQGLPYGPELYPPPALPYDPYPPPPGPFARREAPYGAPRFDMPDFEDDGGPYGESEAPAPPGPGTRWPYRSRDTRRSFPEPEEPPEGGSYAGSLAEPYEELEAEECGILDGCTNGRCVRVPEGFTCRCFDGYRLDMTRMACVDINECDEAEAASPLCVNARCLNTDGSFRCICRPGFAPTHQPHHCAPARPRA
UniProt Q8N567: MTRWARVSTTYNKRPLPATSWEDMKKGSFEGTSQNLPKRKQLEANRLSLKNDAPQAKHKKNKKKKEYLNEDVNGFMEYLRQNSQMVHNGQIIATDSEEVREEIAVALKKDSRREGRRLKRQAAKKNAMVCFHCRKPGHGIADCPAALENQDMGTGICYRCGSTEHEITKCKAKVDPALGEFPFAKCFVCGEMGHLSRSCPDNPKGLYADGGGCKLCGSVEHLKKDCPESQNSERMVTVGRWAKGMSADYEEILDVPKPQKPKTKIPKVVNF
UniProt Q8NHS0: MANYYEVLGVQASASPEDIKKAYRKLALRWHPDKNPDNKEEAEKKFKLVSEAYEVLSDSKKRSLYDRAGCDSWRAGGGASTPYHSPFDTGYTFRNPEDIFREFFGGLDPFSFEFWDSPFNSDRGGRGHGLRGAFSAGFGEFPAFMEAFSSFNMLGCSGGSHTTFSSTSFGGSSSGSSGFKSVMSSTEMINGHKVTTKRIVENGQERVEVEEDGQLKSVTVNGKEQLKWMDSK
UniProt Q8NEP9: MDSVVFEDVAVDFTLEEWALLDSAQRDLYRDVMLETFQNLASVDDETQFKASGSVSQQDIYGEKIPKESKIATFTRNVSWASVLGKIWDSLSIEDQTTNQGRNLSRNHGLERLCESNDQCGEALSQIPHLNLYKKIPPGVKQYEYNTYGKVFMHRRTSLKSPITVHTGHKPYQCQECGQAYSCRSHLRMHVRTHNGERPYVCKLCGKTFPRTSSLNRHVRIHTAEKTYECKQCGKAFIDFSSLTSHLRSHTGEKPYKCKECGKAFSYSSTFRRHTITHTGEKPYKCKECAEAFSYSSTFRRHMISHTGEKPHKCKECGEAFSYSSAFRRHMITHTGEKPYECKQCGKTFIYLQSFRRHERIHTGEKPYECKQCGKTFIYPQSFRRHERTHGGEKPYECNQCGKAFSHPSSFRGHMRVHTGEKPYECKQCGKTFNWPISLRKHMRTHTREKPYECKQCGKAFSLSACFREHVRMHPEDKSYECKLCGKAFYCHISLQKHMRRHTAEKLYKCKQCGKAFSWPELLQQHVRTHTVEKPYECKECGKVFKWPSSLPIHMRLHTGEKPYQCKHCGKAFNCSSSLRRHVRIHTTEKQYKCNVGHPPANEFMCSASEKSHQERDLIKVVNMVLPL
UniProt Q8NFZ5: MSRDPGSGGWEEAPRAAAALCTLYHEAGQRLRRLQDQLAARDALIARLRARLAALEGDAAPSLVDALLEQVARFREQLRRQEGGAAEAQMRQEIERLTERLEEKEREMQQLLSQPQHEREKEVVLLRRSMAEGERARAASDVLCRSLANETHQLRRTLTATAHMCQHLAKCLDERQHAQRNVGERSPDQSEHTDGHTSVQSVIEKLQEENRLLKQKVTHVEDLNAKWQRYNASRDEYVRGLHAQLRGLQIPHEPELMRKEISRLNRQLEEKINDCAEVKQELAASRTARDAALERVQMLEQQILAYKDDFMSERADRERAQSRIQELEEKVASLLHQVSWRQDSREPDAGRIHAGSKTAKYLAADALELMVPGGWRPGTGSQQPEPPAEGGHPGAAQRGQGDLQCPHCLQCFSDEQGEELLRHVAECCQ
UniProt Q8N1G2: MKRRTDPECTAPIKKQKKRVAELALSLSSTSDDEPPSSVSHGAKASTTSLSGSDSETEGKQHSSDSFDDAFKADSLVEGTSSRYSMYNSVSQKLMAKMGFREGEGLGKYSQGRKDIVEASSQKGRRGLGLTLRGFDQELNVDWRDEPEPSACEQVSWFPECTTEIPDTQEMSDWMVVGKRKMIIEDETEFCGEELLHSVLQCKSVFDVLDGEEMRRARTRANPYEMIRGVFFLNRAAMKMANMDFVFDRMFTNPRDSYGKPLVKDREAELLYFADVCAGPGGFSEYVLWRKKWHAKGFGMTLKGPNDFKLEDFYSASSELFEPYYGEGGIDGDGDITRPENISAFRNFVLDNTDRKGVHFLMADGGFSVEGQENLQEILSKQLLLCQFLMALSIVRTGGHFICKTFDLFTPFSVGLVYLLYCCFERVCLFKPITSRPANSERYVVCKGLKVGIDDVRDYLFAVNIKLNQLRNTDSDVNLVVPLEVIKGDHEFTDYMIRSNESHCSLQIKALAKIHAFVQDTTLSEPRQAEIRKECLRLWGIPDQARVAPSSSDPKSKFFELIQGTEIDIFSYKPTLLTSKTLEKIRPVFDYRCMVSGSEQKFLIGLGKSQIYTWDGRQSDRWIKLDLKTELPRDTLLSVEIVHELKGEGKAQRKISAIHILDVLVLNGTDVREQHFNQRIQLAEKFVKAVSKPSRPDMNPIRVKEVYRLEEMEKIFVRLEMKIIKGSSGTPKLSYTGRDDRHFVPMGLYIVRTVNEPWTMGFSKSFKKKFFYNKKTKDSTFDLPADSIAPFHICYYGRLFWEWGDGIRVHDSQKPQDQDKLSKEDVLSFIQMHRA
UniProt Q8NG68: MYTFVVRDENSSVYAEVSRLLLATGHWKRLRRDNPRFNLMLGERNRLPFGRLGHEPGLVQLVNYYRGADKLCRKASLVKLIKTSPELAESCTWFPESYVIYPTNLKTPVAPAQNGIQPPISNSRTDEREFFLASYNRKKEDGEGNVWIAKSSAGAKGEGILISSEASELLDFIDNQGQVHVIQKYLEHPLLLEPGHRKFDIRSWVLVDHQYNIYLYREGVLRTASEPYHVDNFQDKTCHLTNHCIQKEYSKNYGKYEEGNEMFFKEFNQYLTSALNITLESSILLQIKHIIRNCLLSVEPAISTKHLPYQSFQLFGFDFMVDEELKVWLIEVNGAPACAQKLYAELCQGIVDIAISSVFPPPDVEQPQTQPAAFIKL
UniProt Q8NI22: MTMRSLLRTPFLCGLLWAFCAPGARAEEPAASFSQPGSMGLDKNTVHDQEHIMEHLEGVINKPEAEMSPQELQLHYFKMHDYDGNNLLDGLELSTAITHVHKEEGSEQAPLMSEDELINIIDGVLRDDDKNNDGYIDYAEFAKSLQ

Each target was assayed with Cc1nc(Nc2ncc(C(=O)Nc3c(C)cccc3Cl)s2)cc(N2CCN(CCO)CC2)n1 [dasatinib] (assay: log2 fold change of tryptic peptide abundance, ligand vs vehicle (limited proteolysis) (log2 ratio); higher = more trypsin-susceptible (destabilized)). Conditions: ligand concentration: 5 uM; sample: K562 cleared lysate.

Row | Target | log2 fold change
1 | UniProt Q8NFT6 (peptide sequence: SFYLDLPAGK, peptide start residue: 52) | 0.0559
2 | ZNF280C (peptide sequence: SSQSSVTVENASKPDFTK, peptide start residue: 114) (UniProt Q8ND82) | 0.125
3 | LTBP4 (peptide sequence: AGPDLASCLDVDECRER, peptide start residue: 952) (UniProt Q8N2S1) | 0.202
4 | ZCCHC9 (peptide sequence: RPLPATSWEDMKK, peptide start residue: 14) (UniProt Q8N567) | 0.433
5 | UniProt Q8NHS0 (peptide sequence: RIVENGQER, peptide start residue: 207) | 0.655
6 | UniProt Q8NEP9 (peptide sequence: ASGSVSQQDIYGEKIPK, peptide start residue: 51) | -0.268
7 | TNIP2 (peptide sequence: EMQQLLSQPQHER, peptide start residue: 107) (UniProt Q8NFZ5) | -0.165
8 | UniProt Q8N1G2 (peptide sequence: LWGIPDQAR, peptide start residue: 538) | 0.14
9 | TTL (peptide sequence: LGHEPGLVQLVNYYR, peptide start residue: 52) (UniProt Q8NG68) | 0.197
10 | MCFD2 (peptide sequence: DDDKNNDGYIDYAEFAK, peptide start residue: 127) (UniProt Q8NI22) | 0.0786
11 | KRI1 (peptide sequence: DATFYNR, peptide start residue: 84) (UniProt Q8N9T8) | 0.2
